According to article PMC12052123, “Investigating the quaternary structure of a homomultimeric catechol 1,2-dioxygenase: An integrative structural biology study” (PLOS One, 2025):
No constants are given. Whether binding was seen depends on the method and setting. Some results given as binding are weak or reduced against the parent protein; the word gives no strength.

What was measured:
[1] = biological target: catechol 1,2-dioxygenase from Stutzerimonas frequens GOM2 (Stutzerimonas frequens GOM2 (Pseudomonas stutzeri GOM2)); assay: SAXS (static mode); Buffer B, analysis of the mixture with OLIGOMERS (ATSAS); lyophilized and reconstituted SfC12DO; both purified
[2] = biological target: catechol 1,2-dioxygenase from Stutzerimonas frequens GOM2 (Stutzerimonas frequens GOM2 (Pseudomonas stutzeri GOM2)); assay: SDS-PAGE; denaturing Tris-Gly-SDS, 12% gel, Coomassie; lyophilized SfC12DO; both purified

B1: catechol 1,2-dioxygenase from Stutzerimonas frequens GOM2 (enzyme, UniProt A0ABX6XR78 1-312, looked up)
chain: MTVKISHTNDVQQFFKEASGFNNDAGSSRLKTVINRVLADTARIIEDLEITQDEFWKAVDYINRLGGRHEAGLLVAGLGLEHYLDLLQDAKDEQEGLVGGTPRTIEGPLYVAGAPIAEGEVRMDDDSEEGVATTMFLQGRVTGPDGKPLAGATVDLWHANTKGNYSYFDKSQSEYNLRRRIVTDENGYYRARSIVPSGYGCSPDGPTQEVLDMLGRHGQRPAHIHFFISAPGHRHLTTQINLAGDKYLWDDFAYATRDGLVGDIRFIDDAEAARARGVQGRFAEVDFDFQLQKAPAPQAEQRSKRPRALQQA
notes: catechol 1,2-dioxygenase encoded by the CatA gene of Stutzerimonas frequens GOM2 (Pseudomonas stutzeri GOM2); regions are labelled up to residue 312; Non-heme Fe3+ enzyme; Number of copies depends on the sample: dimer when non-lyophilized; dimer, tetramer, (hexamer), octamer and >20-mer after lyophilization and reconstitution; also called SfC12DO; PsC12DO; source: used non-lyophilized, or …
binding [1]: binds | binding [2]: binds
